Assay results as given in US9314540B2, “Compounds for use in imaging, diagnosing and/or treatment of diseases of the central nervous system” (PIRAMAL IMAGING SA, priority 2010, dated 2016).

Tested on: MAO-B
Experiment: PET time activity curves in cynomolgus monkey brain regions
Format: in vivo
Conditions: brain regions investigated, steady state phase

## [2H]C([2H])(C#C)N(C)[C@H](CF)Cc1ccccc1 [[^18F] D2 Deprenyl, N-[(2S)-1-[^18F]fluoro-3-phenylpropan-2-yl]-N-methyl(1,1-^2H2)— prop-2-yn-1-amine]
  decrease in signal intensity from [18F] Deprenyl towards [18F] D2 Deprenyl: 6-8 times

Some results come without the dose or concentration used.
